# Results: the supplement of paper PMC7024190
# Where a name gives a salt, the structure may show the parent alone. ± gives the standard deviation of the averaged measurements. The list shows a part of the results. Repeats in this data set agree poorly, so a single value says little.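 A first-round screen of about ten thousand compounds sought those raising reporter output, using human embryonic kidney cells briefly transfected with a plasmid carrying a Renilla luciferase gene driven by the HSV-TK promoter.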
# System: HEK 293FT
# Test: log relative Renilla luciferase luminescence (reporter expression vs reference, reference not stated) (log (base not stated)); higher = higher recombinant reporter expression
# Details: 10 µM; time after transfection 48 h
row,Structure (SMILES),log
1,CC(C)=CCOc1cc2oc(=O)ccc2cc1O [prenyletin],0.0936
2,O=C(O)CSCC(=O)NC1CCSC1=O (stereo not drawn) [erdosteine],0.00695
3,COc1cc(/C=C/C(=O)CC(=O)/C=C/c2ccc(O)c(OC)c2)ccc1O [curcumin],0.131
4,Cc1cc2nc3c(=O)[nH]c(=O)nc-3n(CC(O)C(O)C(O)COP(=O)(O)O)c2cc1C (stereo not drawn) [riboflavin 5-phosphate sodium],0.0342
5,NCCc1ccc(O)c(O)c1 [dopamine hydrochloride],-0.105
6,NCCc1ccc(O)c(O)c1 [3-hydroxytyramine],0.102
7,"COC(=O)[C@@]1(C)CCC[C@]2(C)c3ccc(O)c(C(C)C)c3CCC12 (stereo partly drawn) [totarol-19-carboxylic acid, methyl ester]",-0.00736
8,O=C(O)CCCCCCCC(O)C(O)CCCCCCO (stereo not drawn) [aleuretic acid],-0.0392
9,CN(Cc1cc(Br)cc(Br)c1N)C1CCCCC1 [bromhexine hydrochloride],0.144
10,C[C@H](CS)C(=O)N1CCC[C@H]1C(=O)O [captopril],-0.251
11,CC1(C)O[C@@H]2C[C@H]3[C@@H]4C[C@H](F)C5=CC(=O)C=C[C@]5(C)[C@H]4[C@@H](O)C[C@]3(C)[C@]2(C(=O)CO)O1 [flunisolide],-0.024
12,C[C@]12CCC(=O)C=C1CC[C@@H]1[C@@H]2[C@@H](O)C[C@@]2(C)[C@H]1CC[C@]2(O)C(=O)COP(=O)(O)O [hydrocortisone phosphate triethylamine],0.15
13,CC(=O)OCC(=O)[C@@]1(O)CC[C@H]2[C@@H]3CCC4=CC(=O)C=C[C@]4(C)[C@H]3[C@@H](O)C[C@@]21C [prednisolone acetate],-0.039
14,CC[C@H](c1ccc(O)cc1)[C@@H](CC)c1ccc(O)cc1 [hexestrol],0.0815
15,Cc1c(Nc2ncccc2C(=O)O)cccc1C(F)(F)F [flunixin meglumine],-0.0301
16,CC(C)(C)NC(=O)[C@H]1CC[C@H]2[C@@H]3CC[C@H]4NC(=O)C=C[C@]4(C)[C@H]3CC[C@]12C [finasteride],-0.0451
17,C=CC1=C(C)/C(=C/c2[nH]c(Cc3[nH]c(/C=C4\NC(=O)C(C)=C4C=C)c(C)c3CCC(=O)O)c(CCC(=O)O)c2C)NC1=O [bilirubin],0.152
18,Nc1nc(N)c2nc(-c3ccccc3)c(N)nc2n1 [triamterene],-0.247
19,C=C1CC[C@H](O)C/C1=C/C=C1\CCC[C@]2(C)[C@@H]([C@H](C)/C=C/[C@H](C)C(C)C)CC[C@@H]12 [ergocalciferol],-0.127
20,CC(C)=CCCC1(C)C=Cc2c(O)c3c(c(CC=C(C)C)c2O1)OC12C(=CCCC1C(C)(C)O[C@@]2(C/C=C(\C)C(=O)O)C(=O)O)C3=O (stereo partly drawn) [garcinolic acid],-0.0417
21,C[C@H](CC(=O)[C@@H]1OC1(C)C)[C@H]1C(=O)C[C@@]2(C)C3=CC[C@H]4C(C)(C)[C@@H](O[C@@H]5OC[C@@H](O)[C@H](O)[C@H]5O)CC[C@@]45C[C@@]35[C@@H](O)C[C@]12C [cimicifugoside h1],0.103
22,CCCCOc1ccc(C(=O)CCN2CCCCC2)cc1 [dyclonine hydrochloride],-0.184 ± 0.12

row,Structure (SMILES),log
1,COc1cccc(O)c1O [3-methoxycatechol],0.0975
2,CN1[C@@H]2CC[C@H]1C[C@@H](OC(=O)C(O)c1ccccc1)C2 (stereo partly drawn) [homatropine hydrobromide],0.209
3,Cn1nnc2c(C(N)=O)ncn2c1=O [temozolamide],0.0483
4,CC(C)(C)CC(C)(C)c1ccc(OCCOCC[N+](C)(C)Cc2ccccc2)cc1 [benzethonium chloride],-0.961
5,CC(C)=CCC[C@@H](C)[C@@H]1CC[C@]2(C)C3=C(CC[C@@]12C)[C@@]1(C)CC[C@H](O)C(C)(C)[C@@H]1CC3 [euphol],0.107
6,CC(C)NCC(O)COc1cccc2[nH]ccc12 (stereo not drawn) [pindolol],-0.0137
7,OC(CCN1CCCC1)(c1ccccc1)C1CCCCC1 (stereo not drawn) [procyclidine hydrochloride],0.00106
8,"CC(=O)/C(=C\c1ccccc1)CC(=O)O [levulinic acid,  3-benzylidenyl-]",0.0461
9,CC(CN(C)C)CN1c2ccccc2CCc2ccccc21 (stereo not drawn) [trimipramine maleate],-0.0623
10,C=C(C)[C@@H]1CC[C@]2(C)CC[C@]3(C)[C@H](CC[C@@H]4[C@@]5(C)CC[C@H](OC(C)=O)C(C)(C)[C@@H]5CC[C@]43C)[C@@H]12 [lupeol acetate],0.0865
11,COC(=O)[C@H]1[C@H]2C[C@H]3c4[nH]c5ccccc5c4CCN3C[C@H]2CC[C@@H]1O [rauwolscine hydrochloride],-0.11
12,CC1=C(/C=C/C(C)=C/C=C/C(C)=C/C=C/C=C(C)/C=C/C=C(C)/C=C/C(=O)[C@]2(C)C[C@@H](O)CC2(C)C)C(C)(C)C[C@H](O)C1 [capsanthin],0.236
13,C[C@H]1[C@H]2CC[C@H]3[C@@H]4CC=C5C[C@@H](N(C)C)CC[C@]5(C)[C@H]4CC[C@]23CN1C [conessine],0.0663
14,"O=C(O[C@@H]1Cc2c(O)cc(O)cc2O[C@@H]1c1cc(O)c(O)c(O)c1-c1c([C@H]2Oc3cc(O)cc(O)c3C[C@H]2OC(=O)c2cc(O)c(O)c(O)c2)cc(O)c(O)c1O)c1cc(O)c(O)c(O)c1 [2',2'-bisepigallocatechin digallate]",-0.0587
15,C[N+](C)(C)C[C@H](O)CC(=O)[O-] [levocarnitine],0.0267
16,CN1C(C(=O)Nc2ccccn2)=C(O)c2sc(Cl)cc2S1(=O)=O [lornoxicam],-0.0675
17,CC12CC3CC(C)(C1)CC(N)(C3)C2 [memantine hydrochloride],0.166
18,CC(C)=CCc1c(O)cc2oc(C)cc(=O)c2c1O [peucenin],0.158
19,COc1ccc(-c2cc(=O)c3c(OC)c(OC)c(OC)c(OC)c3o2)cc1 [tangeritin],0.242
20,Nc1ccc(S(=O)(=O)O)cc1.Nc1ccc(S(=O)(=O)O)cc1.[Zn] [sulfanilate zinc],-1.42
21,C#C[C@]1(O)CC[C@H]2[C@@H]3CCC4=Cc5oncc5C[C@]4(C)[C@H]3CC[C@@]21C [danazol],-0.00241

# Looked up above.
# Under log, CC(=O)/C(=C\c1ccccc1)CC(=O)O [levulinic acid,  3-benzylidenyl-] is listed with 0.0461
# Under log, CN1[C@@H]2CC[C@H]1C[C@@H](OC(=O)C(O)c1ccccc1)C2 (stereo partly drawn) [homatropine hydrobromide] is listed with 0.209
# Under log, CC(CN(C)C)CN1c2ccccc2CCc2ccccc21 (stereo not drawn) [trimipramine maleate] is listed with -0.0623
